# Library screen at single concentrations

Sequences of proteins named here, by UniProt entry; tags and fusion partners are left off. Residues count along the entry.
UniProt A4I591, 1-473: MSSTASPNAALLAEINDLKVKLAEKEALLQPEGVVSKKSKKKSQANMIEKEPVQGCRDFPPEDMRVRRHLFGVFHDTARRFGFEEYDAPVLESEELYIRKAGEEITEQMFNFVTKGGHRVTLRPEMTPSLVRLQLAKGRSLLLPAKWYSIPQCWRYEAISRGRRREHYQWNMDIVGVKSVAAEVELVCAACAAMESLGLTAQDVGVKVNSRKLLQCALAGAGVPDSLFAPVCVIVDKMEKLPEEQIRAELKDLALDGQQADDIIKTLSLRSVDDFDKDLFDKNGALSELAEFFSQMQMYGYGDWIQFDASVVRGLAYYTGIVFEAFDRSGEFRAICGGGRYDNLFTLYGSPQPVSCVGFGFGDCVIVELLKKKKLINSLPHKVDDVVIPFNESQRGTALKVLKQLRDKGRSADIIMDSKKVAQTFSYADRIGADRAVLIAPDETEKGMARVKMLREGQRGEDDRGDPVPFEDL
UniProt P9WPC5, whole entry: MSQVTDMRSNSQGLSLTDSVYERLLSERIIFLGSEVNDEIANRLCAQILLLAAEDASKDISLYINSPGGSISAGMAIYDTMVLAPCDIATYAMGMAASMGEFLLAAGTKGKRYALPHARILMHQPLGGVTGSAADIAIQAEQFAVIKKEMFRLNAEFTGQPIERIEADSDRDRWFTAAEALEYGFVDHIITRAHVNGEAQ
UniProt P9WPC3, whole entry partner: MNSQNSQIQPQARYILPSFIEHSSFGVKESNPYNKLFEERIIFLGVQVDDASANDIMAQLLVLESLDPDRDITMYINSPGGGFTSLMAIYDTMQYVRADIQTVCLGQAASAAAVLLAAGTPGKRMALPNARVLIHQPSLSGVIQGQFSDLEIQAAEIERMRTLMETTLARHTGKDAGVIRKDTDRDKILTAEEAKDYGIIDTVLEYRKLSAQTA

A: 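Histidine-tRNA ligase, Leishmania infantum (UniProt A4I591). Enzyme assay of histidyl-tRNA synthetase; the read-out is not stated. Tested at 30 µM. The record gives no direction; compounds that gave an IC50 in retests scored well above the rest, so higher reads as stronger inhibition. The assay is labelled LdHisRS but filed under L. infantum. About 69,000 compounds were tested under these conditions; 0.6% (about 410) showed 50% or more at least once.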
B: 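Assay of Toxoplasma gondii numbers, read through their beta-galactosidase reporter with a colour substrate. Compounds at 10 µM. The record gives no direction; the compounds picked for IC50 retests had high values, so higher reads as fewer parasites. Size under these conditions: about 67,000 compounds, about 260 of them at 50% or above in at least one test.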
C: 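ClpP1P2, Mycobacterium tuberculosis (UniProt P9WPC5 and UniProt P9WPC3). Protease assay of ClpP1P2, read by the AMC dye that it sets free. Tested at 50 µM. Direction is inferred from only a few compounds that gave an IC50; most scored high, so higher reads as stronger inhibition. Most other retested compounds had strongly negative values. About 69,000 compounds were tested under these conditions; 0.015% (about 10) showed 50% or more at least once.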
D: 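Whole-parasite assay of Trypanosoma brucei over 72 hours; the read-out is not stated. Tested at 30 µM. Higher reads as stronger inhibition (inferred: compounds with an IC50 in retests scored well above the rest). Values scatter widely below zero; nearly all retest evidence comes from the higher of the two concentrations used. About 64,000 compounds were tested under these conditions; 1.5% (about 940) showed 50% or more at least once.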
E: 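Cell assay of Leishmania donovani living inside macrophages; the read-out is not stated. Compounds at 30 µM. The record gives no direction; compounds that gave an IC50 in retests scored well above the rest, so higher reads as stronger inhibition. Size under these conditions: about 69,000 compounds, about 1,000 of them at 50% or above in at least one test.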

Each number is a percent effect as filed.
How 0% and 100% were set is not recorded. Most values in the screen are low, and negative values occur.
Compounds were drawn at random from those tested, without regard to their results.
Two or more numbers in one place are separate tests of the same structure; such repeats can differ widely.
A dash means the value is not listed here; it may have been measured.

| Compound | A | B | C | D | E |
|---|---|---|---|---|---|
| `Cc1cnn(CC2CCCN2C(=O)c2ccc3nnc(C)n3c2)c1` (stereo not shown) | 2.128% | 7.444% | 5.889% | -36% | 2.066% |
| `Cc1cccnc1CC(C)N(C)C(=O)c1ccoc1C` (stereo not shown) | 14.14% | 4.682% | -8.305% | -19.42% | 25.42% |
| `CCOCCNCc1cc(O)c2cc(C)ccc2n1` | 20.16% | -0.05565% | -4.243% | -12.06% | 6.615% |
| `CSc1ccccc1C(=O)NCCC(O)c1ccco1` (stereo not shown) | -3.478% | -12.87% | 4.541% | -33.58% | -12.1% & -8.282% |
| `O=C(NCc1cccc(F)c1)NCC(O)c1cccc(F)c1` (stereo not shown) | 10.53% | -7.692% | -9.973% | 2.615% | -13.32% |
| `Cc1cc(C)cc(C(=O)N2CCCC3(CCCC(=O)N3C)C2)c1` (stereo not shown) | -4.587% | 14.5% | -0.9542% | -0.5349% | 12.98% |
| `CC(Sc1nc(N)cc(N)n1)c1nc(C(C)(C)C)no1` (stereo not shown) | 11.11% | -2.276% | -1.376% | -18.8% | 12.19% |
| `CCNC(=O)[C@@H]1C[C@@H](NC(=O)Cc2ccccn2)CN1CCCSC` | -30.48% | 23.56% | -5.552% | -43.07% | -7.849% |
| `CCn1cncc1CN(Cc1ccc(OC)cc1OC)CC1CCCO1` (stereo not shown) | 13.54% | - | -3.801% | - | - |
| `CCSc1ncc(CN2CCN(c3ncc(C)c(N)n3)CC2)cn1` | 24.44% | 0.2647% | -3.186% | -24.34% | -0.7753% |
| `CC(C)n1ncc2c1NC(=O)CC21C(=O)Nc2c(Cl)ccc(Cl)c21` (stereo not shown) | 7.895% | 6.527% | -5.861% | -13.16% | 13.17% |
| `[H][C@@]12CN(CC(=O)OCC)C[C@]1([H])OCCN2c1ncc(F)cn1` | - | 10.1% | - | -71.18% | -9.453% |
| `CCN1CCC(CC(=O)N(C)CC(=O)c2ccc(O)cc2)CC1` | 16.67% | 13.88% | -11.51% | -53.46% | 13.29% |
| `CCN(C(C)=O)c1nc(CN2CCCC2Cn2cncn2)cs1` (stereo not shown) | 20.87% | 3.628% | 0.3272% | -29.61% | -1.119% |
| `CCCNc1ncc(C2CC(=O)NCc3nc4ccccn4c32)cn1` (stereo not shown) | 11.11% | -3.223% | -15.41% | -1.101% | -10.79% |
| `O=C(Cc1csc(-c2ccccn2)n1)NCCCN1CCCCCC1=O` | 4.938% | 8.097% | -3.409% | -23.24% | -30.72% |
| `O=C(C1CCCCN1Cc1nccn1CC(F)(F)F)N1CCCC1` (stereo not shown) | 19.61% | 8.39% | 1.697% | -50.68% | 20.01% |
| `CC(C)N(C)Cc1n[nH]c2c1CCN(C(=O)c1ccc[nH]1)C2` | 3.191% | - | -0.9728% | - | - |
| `Cc1ccc(CN2CC[C@@H]3CN(S(C)(=O)=O)CCO[C@@H]3C2)o1` | 7.018% | - | -4.573% | - | - |
| `O=C(CCC1CCCC1)N1CCC(O)(C(F)(F)F)C1` (stereo not shown) | 29.58% | 0.9709% | -2.615% | -57.83% | 16.05% |
| `CN(CCN1CCOC1=O)CC(=O)Nc1ccc(Cl)c(Cl)c1` | 13.16% | -4.61% | -10.77% | -35.73% | 4.256% |
| `CC(=O)Nc1ccc(CN(C)Cc2snnc2C)cc1` | 16.33% | 8.996% | -1.366% | -18.32% | 11.86% |
| `NC(=O)C1CCN(C(=O)NCc2ccccc2Cn2cncn2)CC1` | 7.692% | -5.078% | -2.78% | -21.48% | 10.38% |
| `COC(=O)c1ccoc1CN(C)Cc1ccccc1` | -4.11% | 6.758% | -7.394% | -12.34% | -12.39% |
| `Cc1noc(C)c1CN1CC2(CCN(C(=O)c3cscn3)CC2)CC1=O` | 10.38% | 9.374% | -3.399% | 5.176% | -9.201% |
| `COc1ccc(C(O)CNC(=O)NCCc2csc(C)n2)cc1` (stereo not shown) | 9.091% | 17.33% | -21.6% | -5.949% | -3.569% |
| `CS(=O)(=O)N1CCC2(CC1)CC(NCC1CC1)c1ccccc12.O=C(O)C(F)(F)F` (stereo not shown) | - | -13.02% | - | 3.499% | 19.45% |
| `Cc1cc2nc(CO[C@H]3CN(C(=O)C4CC4)C[C@H]3F)[nH]c2cc1C` | 17.57% | -6.68% | 4.424% | -54.83% | -19.4% |
| `c1csc(-c2nc(CNC3CCc4ncnn4C3)cs2)c1` (stereo not shown) | 14.89% | -7.895% | 10.44% | 9.88% | 16.32% |
| `CCc1csc(C2CCCN(C(=O)COc3cc(C)on3)C2)n1` (stereo not shown) | 8.621% | 7.297% | -16.13% | 14.71% | 22.19% |
| `Cc1cc(CN2CCCC2c2noc(C(C)C)n2)on1` (stereo not shown) | 12.17% | -5.66% | 1.33% | -8.901% | 10.35% |
| `Cc1nc(CC(=O)N2CCCC2Cn2cccn2)cs1` (stereo not shown) | 3.448% | 0.1078% | -16.33% | 14.87% | 24.77% |
| `O=C(NCC1CC[C@@H]2[C@@H]1OCCN2Cc1cccs1)c1ccco1` (stereo partly shown) | 21.37% | - | 8.697% | - | - |
| `COCCN1CCC(CNC(=O)C2(c3cccc(C)c3)CC2)CC1` | 10.81% | -30.88% | -2.768% | -10.44% | 20.19% |
| `CC(NC(=O)COC1CCCC1)c1nc(-c2ccccc2)c[nH]1` (stereo not shown) | 22.12% | 1.277% | -4.391% | -9.909% | 34.57% |
| `[H][C@@]12C[C@H](C(=O)N3CCCCO3)CN(C(=O)C3CCOCC3)[C@]1([H])CCO2` | - | 2.244% | - | -43.9% | 14.56% |
| `CCOc1ccc(Cl)cc1CNCCCn1ccnc1` | 9.709% | -5.858% | 15.03% | -32.91% | 1.663% |
| `Cc1ccc(C(=O)N2CCC3(CCC(=O)N(CCCO)C3)CC2)c(O)c1` | 13.58% | 5.95% | -5.107% | -27.87% | 9.492% |
| `CC(C)NC(=O)[C@@]12CCO[C@@H]1CCN(Cc1ccco1)C2` | 15.09% | - | 1.371% | - | - |
| `CC(C)C(NC(=O)c1ccc(N2CCOCC2)nc1)c1cccs1` (stereo not shown) | 23.08% | 6.691% | 8.446% | - | 8.987% |
| `CCC[C@H]1CN(C(=O)c2cc(-c3cccs3)n(C)n2)C[C@@H]1N` | 9.524% | 15.8% | -3.676% | 8.967% | 7.554% |
| `O=C(O)C(F)(F)F.[H][C@@]12CCCO[C@]1([H])[C@H](NC(=O)c1cnoc1C)CN(CC1CC1)C2` | - | -6.608% | - | -62.02% | 16.57% |
| `CC(C)C(=O)N1CCC(CNc2nc(C(C)C)nc3c2cnn3C)CC1` | 12.5% | -8.394% | -2.011% | -18.64% | 14.99% |
| `COCCN1CCC(CNCc2c[nH]nc2C(C)(C)C)CC1` | 12.28% | -21.55% | 18.22% | -11.73% | -2.506% |
| `Cc1oc2nc[nH]c(=O)c2c1C(=O)N1CCCC(n2cccn2)C1` (stereo not shown) | 17.14% | 7.858% | 0.4035% | -38.16% | 33.6% |
| `COCCCN1CC2(CCCN(c3ncc(Cl)cc3F)C2)CCC1=O` (stereo not shown) | 18.75% | -0.8409% | -6.097% | -3.942% | -14.83% |
| `CN(C)c1nccnc1C1CCN(c2cnccn2)CC1` | 11.51% | 2.29% | -26.95% | 10.88% | 28.09% |
| `CN(CCNC(=O)Nc1cnn(C)c1)Cc1ccc(F)cc1` | -1.205% | -1.038% | -6.013% | -14.29% | -44.73% |
| `CCCc1nc(C(=O)NCCN2CCC(c3ccccc3C)C2)cs1` (stereo not shown) | 13.19% | 10.33% | -4.743% | -16.65% | 21.9% |
| `COc1ccc(CN2C[C@@H]3COC[C@@H](N4CCN(C)CC4)[C@@H]3C2)cc1` | 17% | - | 9.915% | - | - |
| `Cc1nc(-c2cnn(C)c2)sc1C(=O)NCc1cccc(CN(C)C)c1` | 23.68% | 0.5882% | 1.478% | 1.531% | -11.5% |
| `OCC1(O)CCN(c2ncccc2C(F)(F)F)CC1` | 19.18% | 16.49% | -2.967% | -5.4% | 0.09547% |
| `CC(=O)Nc1nc(C(=O)N2CCC(Nc3cccnn3)CC2)cs1` | 9.434% | -0.3367% | -14.67% | -0.2171% | -11.09% |

Data taken from ChEMBL document CHEMBL3988442, “University of Dundee, Small-Polar-MMV Screening Library” (2021).